The record followed here is paper PMC3923682.

The chains behind the UniProt entries cited, without tags or fusion partners. Where a name states a change or a piece, a line headed by the entry shows the natural chain unless it says otherwise. Residues count along the entry.
UniProt Q61616: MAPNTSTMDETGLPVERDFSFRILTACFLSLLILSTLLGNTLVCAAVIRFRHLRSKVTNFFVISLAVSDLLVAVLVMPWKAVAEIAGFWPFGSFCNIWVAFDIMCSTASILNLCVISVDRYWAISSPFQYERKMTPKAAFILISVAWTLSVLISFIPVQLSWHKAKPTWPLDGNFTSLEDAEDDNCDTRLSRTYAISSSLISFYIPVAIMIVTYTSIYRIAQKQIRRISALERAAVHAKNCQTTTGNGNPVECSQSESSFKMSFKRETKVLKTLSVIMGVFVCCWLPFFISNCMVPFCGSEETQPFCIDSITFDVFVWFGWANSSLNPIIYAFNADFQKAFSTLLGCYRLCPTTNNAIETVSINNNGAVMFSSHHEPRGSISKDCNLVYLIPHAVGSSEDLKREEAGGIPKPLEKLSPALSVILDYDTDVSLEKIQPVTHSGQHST
Flag-D1R-CT (217–446aa): residues 217-446 of Q61616

Test [1] concerns the target Flag-D1R (mouse) (UniProt Q61616). In words: co-IP; HEK-293T cells co-transfected with a Flag-tagged and a Myc-tagged construct; lysis in 50 mM Tris-HCl pH 7.4, 150 mM NaCl, 1 mM EDTA, 1% Triton X-100; immunoprecipitation overnight with anti-FLAG M2, elution with 3x FLAG peptide, blot with anti-Myc or anti-Flag.
Test [2] concerns the target Flag-D1R-CT (217–446aa) (mouse) (UniProt Q61616). The description is as above.

These are yes or no findings as the source states them, for the method shown. Binding seen in cells or lysates may run through a third protein. Some binding calls cover weakened binding; strength is not graded here. Where a sequence is shown, tags or fusion partners need not be part of it.

B1: Myc-SLC35D3 (protein, UniProt Q8BGF8 1-422)
chain: MRQLCRGRVLGISVAIAHGVFSGSLNILLKFLISRYQFSFLTLVQCLTSSTAALSLELLRRLGLIAVPPFGLSLARSFAGVAVLSTLQSSLTLWSLRGLSLPMYVVFKRCLPLVTMLIGVLVLKNGAPSPGVLAAVLITTCGAALAGAGDLTGDPIGYVTGVLAVLVHAAYLVLIQKASADTEHGPLTAQYVIAVSATPLLVICSFASTDSIHAWTFPGWKDPAMVSIFVACILIGCAMNFTTLHCTYINSAVTTSFVGVVKSIATITVGMVAFSDVEPTSLFIAGVVVNTLGSIIYCVAKFLETRRQSNYEDLESQAEGEERQPSGDQLPFVMEELPAKSGNSEPESAEGAGDSVQQGGQESRGSIRGISLAARSSRAEGHSDEVGRRSLKDTYLEVWRLVRGTKYMKKDYLMENEALPSP
Consider B1, for which the binding entry in test [1] and in test [2] was “binds” in each case.
